Experimental data published in patent US20160347850A1 (AbbVie / Abbott, published 2016).
No constants are given. Whether binding was seen depends on the method and setting. Some results given as binding are weak or reduced against the parent protein; the word gives no strength.

The chains behind the UniProt entries cited, without tags or fusion partners. Where a name states a change or a piece, a line headed by the entry shows the natural chain unless it says otherwise. A line that says so, or that is headed by a name, gives the form on record, which may keep a tag or linker.
cyno CD40 (G7PG38, form named): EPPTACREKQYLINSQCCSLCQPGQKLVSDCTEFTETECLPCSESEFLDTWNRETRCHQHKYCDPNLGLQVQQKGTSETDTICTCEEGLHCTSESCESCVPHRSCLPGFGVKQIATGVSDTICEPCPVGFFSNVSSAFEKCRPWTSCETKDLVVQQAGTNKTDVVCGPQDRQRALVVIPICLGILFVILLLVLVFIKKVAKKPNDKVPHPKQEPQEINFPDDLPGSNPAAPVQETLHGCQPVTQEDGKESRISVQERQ
UniProt P25942: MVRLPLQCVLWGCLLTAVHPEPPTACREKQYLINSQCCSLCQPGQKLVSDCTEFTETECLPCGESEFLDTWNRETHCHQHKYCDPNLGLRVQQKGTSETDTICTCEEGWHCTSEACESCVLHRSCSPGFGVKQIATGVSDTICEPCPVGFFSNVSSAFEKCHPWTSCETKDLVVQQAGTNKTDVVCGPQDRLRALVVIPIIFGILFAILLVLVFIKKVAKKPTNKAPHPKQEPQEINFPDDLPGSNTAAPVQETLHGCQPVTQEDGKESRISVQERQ

Experiments:
[1] = target: T1, cyno CD40 (cynomolgus monkey, UniProt G7PG38 21-278); experiment: FACS binding on HEK cells expressing cyCD40
T1 construct: whole, on cells; also called cyCD40; cynomolgus monkey CD40

[2] = target: T2, Human CD40 (human, UniProt P25942 21-277); experiment: FACS on HEK cells expressing huCD40
[3] = target: T1, cyno CD40; experiment: FACS on HEK cells expressing cyno CD40
[4] = target: T2, Human CD40; experiment: FACS binding on HEK cells expressing huCD40

Measured: binding

B1: chimeric Ab1 (chAb1) (antibody, V domains shown)
VH: EVQLVESGGGLVKPGGSLKVSCAASGFTFSDYGMNWVRQAPEKGLEWIAYISSGRSNIYYADTVKGRFTISRDNAKNTLFLQMTSLRSEDTAMYYCARSWGYFDVWGTGTTVTVSS
VL: DIVMTQSPSSLTVTAGEMVTMSCKSSQSLLNSGNQKNYLTWFQQKPGQPPKLLIYWASTRESGVPDRFAGSGSGTDFTLTISSVQAEDLAVYYCQNDYTYPLTFGAGTKLEIK
notes: Murine Ab1 variable regions on human constant regions; also called chimeric antibody (Antibody 1 (Ab1))
binds: all assays above
